Data published in the supplement of paper PMC10849652.
Some of the results follow.

The chains behind the UniProt entries cited, without tags or fusion partners. Where a name states a change or a piece, a line headed by the entry shows the natural chain unless it says otherwise.
UniProt O76041: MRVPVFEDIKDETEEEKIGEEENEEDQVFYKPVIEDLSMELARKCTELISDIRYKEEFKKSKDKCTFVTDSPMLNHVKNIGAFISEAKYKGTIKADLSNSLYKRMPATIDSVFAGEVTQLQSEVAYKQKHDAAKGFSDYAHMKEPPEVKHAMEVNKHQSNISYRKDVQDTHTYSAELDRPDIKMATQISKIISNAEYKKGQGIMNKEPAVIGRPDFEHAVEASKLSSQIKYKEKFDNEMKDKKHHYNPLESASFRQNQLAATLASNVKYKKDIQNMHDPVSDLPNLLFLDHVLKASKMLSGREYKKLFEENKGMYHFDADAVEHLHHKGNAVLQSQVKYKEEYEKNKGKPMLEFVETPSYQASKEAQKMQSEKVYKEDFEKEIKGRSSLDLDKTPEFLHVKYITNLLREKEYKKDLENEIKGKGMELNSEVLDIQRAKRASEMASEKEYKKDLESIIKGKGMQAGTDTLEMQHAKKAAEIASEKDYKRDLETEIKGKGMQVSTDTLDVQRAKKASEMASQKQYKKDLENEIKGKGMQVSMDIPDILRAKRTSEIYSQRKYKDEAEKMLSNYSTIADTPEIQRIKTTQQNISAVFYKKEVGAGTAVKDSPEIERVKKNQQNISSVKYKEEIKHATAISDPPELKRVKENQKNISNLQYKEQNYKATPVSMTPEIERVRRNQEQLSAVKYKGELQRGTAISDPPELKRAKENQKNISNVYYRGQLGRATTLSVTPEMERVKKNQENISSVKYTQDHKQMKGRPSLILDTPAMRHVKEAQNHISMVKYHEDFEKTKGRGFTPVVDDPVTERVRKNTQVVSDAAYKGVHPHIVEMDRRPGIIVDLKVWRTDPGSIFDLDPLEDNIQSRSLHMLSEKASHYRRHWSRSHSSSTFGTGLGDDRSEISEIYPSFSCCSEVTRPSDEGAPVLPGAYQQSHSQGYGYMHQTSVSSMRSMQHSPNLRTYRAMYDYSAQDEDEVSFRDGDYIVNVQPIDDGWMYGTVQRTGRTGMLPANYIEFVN
UniProt O95544: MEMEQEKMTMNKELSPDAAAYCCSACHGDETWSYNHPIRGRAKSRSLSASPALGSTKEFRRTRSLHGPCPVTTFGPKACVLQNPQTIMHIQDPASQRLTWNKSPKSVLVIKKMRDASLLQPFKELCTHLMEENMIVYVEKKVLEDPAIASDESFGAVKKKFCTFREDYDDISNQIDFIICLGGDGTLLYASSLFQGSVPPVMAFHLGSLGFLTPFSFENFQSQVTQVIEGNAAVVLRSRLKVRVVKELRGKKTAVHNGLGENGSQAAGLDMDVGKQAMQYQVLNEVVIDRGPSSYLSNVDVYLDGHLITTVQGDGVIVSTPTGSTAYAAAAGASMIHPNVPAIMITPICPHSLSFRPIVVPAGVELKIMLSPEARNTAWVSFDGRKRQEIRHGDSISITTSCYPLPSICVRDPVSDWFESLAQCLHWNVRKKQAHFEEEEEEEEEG
UniProt Q9GZZ1: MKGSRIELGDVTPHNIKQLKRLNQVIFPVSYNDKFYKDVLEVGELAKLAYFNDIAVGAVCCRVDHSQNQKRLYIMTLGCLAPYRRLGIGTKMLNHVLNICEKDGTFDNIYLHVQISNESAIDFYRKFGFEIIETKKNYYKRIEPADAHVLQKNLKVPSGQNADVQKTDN
UniProt P41227: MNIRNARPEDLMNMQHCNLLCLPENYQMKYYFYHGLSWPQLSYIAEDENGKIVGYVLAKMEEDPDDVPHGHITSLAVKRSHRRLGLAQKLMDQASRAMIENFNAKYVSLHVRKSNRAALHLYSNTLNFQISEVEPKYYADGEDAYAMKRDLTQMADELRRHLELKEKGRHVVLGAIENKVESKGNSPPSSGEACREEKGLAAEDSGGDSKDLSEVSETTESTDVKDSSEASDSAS
UniProt Q9BTX1: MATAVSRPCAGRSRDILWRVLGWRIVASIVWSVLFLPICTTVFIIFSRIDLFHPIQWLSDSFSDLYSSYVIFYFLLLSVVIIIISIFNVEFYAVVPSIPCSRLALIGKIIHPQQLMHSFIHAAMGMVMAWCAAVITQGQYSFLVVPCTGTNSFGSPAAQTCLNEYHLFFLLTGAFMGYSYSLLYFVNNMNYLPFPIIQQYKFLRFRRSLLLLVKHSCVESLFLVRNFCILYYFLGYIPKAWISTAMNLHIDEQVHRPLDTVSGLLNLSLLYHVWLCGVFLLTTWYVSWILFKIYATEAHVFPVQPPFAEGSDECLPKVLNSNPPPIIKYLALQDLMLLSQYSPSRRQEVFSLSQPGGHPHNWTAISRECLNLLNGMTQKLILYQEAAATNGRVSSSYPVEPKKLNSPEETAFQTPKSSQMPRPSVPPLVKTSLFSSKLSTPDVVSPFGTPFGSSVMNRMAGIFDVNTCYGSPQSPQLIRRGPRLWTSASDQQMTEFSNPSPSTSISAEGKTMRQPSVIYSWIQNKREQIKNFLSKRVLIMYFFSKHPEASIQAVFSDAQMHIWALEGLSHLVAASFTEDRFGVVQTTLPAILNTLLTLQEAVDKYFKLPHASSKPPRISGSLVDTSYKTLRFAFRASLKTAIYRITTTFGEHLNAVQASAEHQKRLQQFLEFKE
UniProt Q86XI2: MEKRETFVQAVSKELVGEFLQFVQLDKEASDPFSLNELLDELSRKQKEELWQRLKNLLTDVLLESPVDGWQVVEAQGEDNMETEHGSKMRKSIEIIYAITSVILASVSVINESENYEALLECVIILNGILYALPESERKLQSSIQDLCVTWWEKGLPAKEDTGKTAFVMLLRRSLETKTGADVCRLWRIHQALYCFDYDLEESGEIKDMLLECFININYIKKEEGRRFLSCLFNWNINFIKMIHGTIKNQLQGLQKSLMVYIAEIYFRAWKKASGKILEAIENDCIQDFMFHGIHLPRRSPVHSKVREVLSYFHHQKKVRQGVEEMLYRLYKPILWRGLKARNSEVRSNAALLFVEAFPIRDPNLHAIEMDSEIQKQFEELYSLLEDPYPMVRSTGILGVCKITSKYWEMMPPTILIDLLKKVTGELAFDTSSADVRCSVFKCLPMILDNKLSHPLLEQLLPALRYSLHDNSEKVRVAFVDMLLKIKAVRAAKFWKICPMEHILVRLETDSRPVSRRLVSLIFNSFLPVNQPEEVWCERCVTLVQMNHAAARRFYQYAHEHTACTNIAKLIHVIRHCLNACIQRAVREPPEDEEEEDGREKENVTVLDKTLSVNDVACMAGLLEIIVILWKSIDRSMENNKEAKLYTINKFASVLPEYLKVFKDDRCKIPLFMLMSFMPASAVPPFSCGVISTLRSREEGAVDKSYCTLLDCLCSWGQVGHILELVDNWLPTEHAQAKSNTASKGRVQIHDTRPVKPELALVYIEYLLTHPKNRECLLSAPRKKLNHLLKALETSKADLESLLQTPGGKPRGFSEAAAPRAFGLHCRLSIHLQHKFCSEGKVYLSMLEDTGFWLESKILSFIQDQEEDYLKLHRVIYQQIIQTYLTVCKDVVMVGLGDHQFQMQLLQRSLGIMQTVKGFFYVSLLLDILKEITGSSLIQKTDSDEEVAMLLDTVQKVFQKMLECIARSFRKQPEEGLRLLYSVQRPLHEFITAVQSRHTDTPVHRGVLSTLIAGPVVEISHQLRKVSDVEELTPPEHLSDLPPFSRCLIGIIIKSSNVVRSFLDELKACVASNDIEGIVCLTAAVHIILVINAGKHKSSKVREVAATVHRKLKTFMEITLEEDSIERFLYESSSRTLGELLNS
UniProt Q9P032: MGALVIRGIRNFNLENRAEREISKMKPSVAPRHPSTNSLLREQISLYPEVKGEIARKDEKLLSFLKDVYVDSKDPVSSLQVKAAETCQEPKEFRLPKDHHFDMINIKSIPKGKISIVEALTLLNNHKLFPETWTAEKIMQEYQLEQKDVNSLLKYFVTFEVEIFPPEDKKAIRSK
UniProt Q68D85: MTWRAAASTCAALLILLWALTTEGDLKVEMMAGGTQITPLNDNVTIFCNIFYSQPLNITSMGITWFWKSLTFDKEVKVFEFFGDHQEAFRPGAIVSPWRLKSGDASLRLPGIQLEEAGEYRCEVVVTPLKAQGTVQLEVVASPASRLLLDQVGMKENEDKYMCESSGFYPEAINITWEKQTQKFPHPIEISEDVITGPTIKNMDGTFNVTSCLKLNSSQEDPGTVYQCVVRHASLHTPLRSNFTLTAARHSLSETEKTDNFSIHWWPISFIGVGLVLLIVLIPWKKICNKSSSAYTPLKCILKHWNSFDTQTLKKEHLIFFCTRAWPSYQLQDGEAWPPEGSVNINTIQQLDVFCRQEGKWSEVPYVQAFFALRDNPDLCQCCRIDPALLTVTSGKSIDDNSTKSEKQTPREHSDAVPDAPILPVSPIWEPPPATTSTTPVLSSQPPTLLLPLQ
UniProt P54920: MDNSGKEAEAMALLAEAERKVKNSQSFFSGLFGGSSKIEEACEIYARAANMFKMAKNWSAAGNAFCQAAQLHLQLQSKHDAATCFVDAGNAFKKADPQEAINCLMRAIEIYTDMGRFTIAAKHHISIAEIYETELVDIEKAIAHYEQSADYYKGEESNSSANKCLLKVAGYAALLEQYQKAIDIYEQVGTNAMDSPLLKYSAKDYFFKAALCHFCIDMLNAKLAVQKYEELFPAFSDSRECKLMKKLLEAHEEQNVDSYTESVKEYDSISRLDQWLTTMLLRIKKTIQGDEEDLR
UniProt Q86Y39, whole entry, looked up: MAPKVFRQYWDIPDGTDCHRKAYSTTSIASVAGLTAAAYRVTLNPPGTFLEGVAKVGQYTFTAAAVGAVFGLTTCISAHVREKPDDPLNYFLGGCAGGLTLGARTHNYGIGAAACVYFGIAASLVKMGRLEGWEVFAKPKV
UniProt O75489, whole entry, looked up: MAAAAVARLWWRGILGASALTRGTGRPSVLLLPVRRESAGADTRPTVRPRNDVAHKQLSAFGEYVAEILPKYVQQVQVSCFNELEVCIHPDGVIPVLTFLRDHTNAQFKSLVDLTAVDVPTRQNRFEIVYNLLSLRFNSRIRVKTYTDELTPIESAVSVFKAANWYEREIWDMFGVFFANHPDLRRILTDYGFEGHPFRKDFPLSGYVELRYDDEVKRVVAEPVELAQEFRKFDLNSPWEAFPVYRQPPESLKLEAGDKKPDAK
UniProt Q9UHQ1: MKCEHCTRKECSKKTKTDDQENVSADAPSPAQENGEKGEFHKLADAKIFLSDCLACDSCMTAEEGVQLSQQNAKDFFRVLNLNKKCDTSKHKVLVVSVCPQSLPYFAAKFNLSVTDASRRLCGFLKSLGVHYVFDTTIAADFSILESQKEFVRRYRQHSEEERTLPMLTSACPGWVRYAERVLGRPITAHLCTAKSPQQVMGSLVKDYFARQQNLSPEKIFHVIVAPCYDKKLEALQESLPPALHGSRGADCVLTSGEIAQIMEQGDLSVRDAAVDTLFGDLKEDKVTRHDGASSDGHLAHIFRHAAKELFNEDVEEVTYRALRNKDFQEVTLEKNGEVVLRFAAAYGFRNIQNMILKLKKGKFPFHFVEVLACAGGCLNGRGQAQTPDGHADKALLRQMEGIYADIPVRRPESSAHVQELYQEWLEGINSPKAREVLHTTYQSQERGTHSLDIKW
UniProt Q5TEU4: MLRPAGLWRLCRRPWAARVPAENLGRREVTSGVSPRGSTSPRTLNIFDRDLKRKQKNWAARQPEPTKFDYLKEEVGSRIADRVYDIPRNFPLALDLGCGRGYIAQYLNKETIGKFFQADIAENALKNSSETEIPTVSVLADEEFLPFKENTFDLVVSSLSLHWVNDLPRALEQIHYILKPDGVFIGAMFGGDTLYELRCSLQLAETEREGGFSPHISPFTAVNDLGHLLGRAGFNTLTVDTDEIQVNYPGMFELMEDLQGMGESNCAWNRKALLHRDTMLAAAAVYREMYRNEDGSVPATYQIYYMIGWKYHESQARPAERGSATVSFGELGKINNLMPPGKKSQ
UniProt Q9UJ70, whole entry, looked up: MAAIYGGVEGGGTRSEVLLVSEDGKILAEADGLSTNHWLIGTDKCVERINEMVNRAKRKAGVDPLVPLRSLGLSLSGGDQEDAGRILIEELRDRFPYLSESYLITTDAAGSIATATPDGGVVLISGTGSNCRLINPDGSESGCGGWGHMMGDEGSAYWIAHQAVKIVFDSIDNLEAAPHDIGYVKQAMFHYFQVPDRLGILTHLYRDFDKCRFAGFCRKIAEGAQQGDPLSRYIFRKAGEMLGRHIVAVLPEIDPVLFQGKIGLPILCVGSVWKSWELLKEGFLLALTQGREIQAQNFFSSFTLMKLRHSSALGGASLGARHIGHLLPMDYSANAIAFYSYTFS

Legend:
Assay in all cases: log2 fold change, soluble protein after heating vs DMSO (PISA); higher = thermal stabilisation; K562 cells, 10 uM, 30 min; active = over 0.2 and 3.5 SD of the protein, either way, in both replicates (recomputed)
[1] = compound: CN1CCN(CCOc2cc(OC3CCOCC3)c3c(Nc4c(Cl)ccc5c4OCO5)ncnc3c2)CC1 [saracatinib]
Outline: (§1)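 K562 cells (2×10^6 cells/mL) were treated with 10 μM compound for 30 min, and aliquots were heated for 3 min over 48°C-58°C. Pooled aliquots were extracted in PBS with 0.5% NP-40 at 4°C, and the supernatant after 21,000xg for 90 min was measured by TMTpro 16plex LC-MS/MS with channel sums equalised. Reported thermal stability, relative to control samples and from duplicates, is a log2 fold change.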

[2] = compound: CN1CCN(c2nc(C3=C(c4c[nH]c5ccccc45)C(=O)NC3=O)c3ccccc3n2)CC1 [sotrastaurin]
Outline: as §1

[3] = compound: CN1CC[C@H](c2c(O)cc(O)c3c(=O)cc(-c4ccccc4Cl)oc23)[C@H](O)C1 [alvocidib]
Outline: as §1

[4] = compound: CN1CCc2c(c3ccccc3n2Cc2ccc(C(=O)NO)cc2)C1 [Tubastatin A]
Outline: as §1

[5] = compound: CNC(=O)C1=CC=CC=C1NC2=NC(=NC=C2Cl)NC3=C(C=C(C=C3)N4CCOCC4)OC
Outline: as §1

[6] = compound: CNC(=O)c1ccc(Nc2ncc(C(F)(F)F)c(NCc3nccnc3N(C)S(C)(=O)=O)n2)cc1 [defactinib]
Outline: as §1

[7] = compound: CNCc1ccc(-c2[nH]c3cc(F)cc4c3c2CCNC4=O)cc1 [rucaparib]
Outline: as §1

[8] = compound: CNc1nc(-c2ccc3c(N)n[nH]c3c2)cc(N2C[C@@H](C(=O)NC3CCCCC3)CC[C@H]2C)n1
Outline: as §1

[9] = compound: COC(=O)N[C@@H](C)CNc1nccc(-c2cn(C(C)C)nc2-c2cc(Cl)cc(NS(C)(=O)=O)c2F)n1 [encorafenib]
Outline: as §1

[10] = compound: COC(=O)[C@H](CCSC)NC(=O)C1=C(C=C(C=C1)NC[C@H](CS)N)C2=CC=CC=C2
Outline: as §1

[11] = compound: COC1=CC=C(C=C1)CN2C=CC3=C2C=C(C=C3)C(=O)NO
Outline: as §1

[12] = compound: CON(C)C(=O)N1N=C(c2cc(F)ccc2F)S[C@@]1(CCCN)c1ccccc1 [filanesib]
Outline: as §1

[13] = compound: CO[C@H]1C[C@@H]2CC[C@@H](C)[C@@](O)(O2)C(=O)C(=O)N2CCCC[C@H]2C(=O)O[C@H]([C@H](C)C[C@@H]2CC[C@H](n3cnnn3)[C@H](OC)C2)CC(=O)[C@H](C)/C=C(\C)[C@@H](O)[C@@H](OC)C(=O)[C@H](C)C[C@H](C)/C=C/C=C/C=C/1C [zotarolimus]
Outline: as §1

[14] = compound: COc1cc(C(=O)O)ccc1NC(=O)[C@@H]1N[C@@H](CC(C)(C)C)[C@](C#N)(c2ccc(Cl)cc2F)[C@H]1c1cccc(Cl)c1F [idasanutlin]
Outline: as §1

[15] = compound: COc1cc(Nc2ncc3c(n2)-c2ccc(Cl)cc2C(c2c(F)cccc2OC)=NC3)ccc1C(=O)O [alisertib]
Outline: as §1

[16] = compound: COc1cc2nc(-c3cc(F)ccc3O)nc(N[C@@H]3CNC[C@H]3C(C)(C)O)c2cc1OC
Outline: as §1

[17] = compound: COc1cc2ncnc(Nc3ccc(F)c(Cl)c3)c2cc1OCCCN1CCOCC1 [gefitinib]
Outline: as §1

[18] = compound: COc1cccc2cc(-c3nc([C@H]4CC[C@H](C(=O)O)CC4)n4ncnc(N)c34)[nH]c12
Outline: as §1

[19] = compound: CS(=O)(=O)CCNCc1ccc(-c2ccc3ncnc(Nc4ccc(OCc5cccc(F)c5)c(Cl)c4)c3c2)o1 [lapatinib]
Outline: as §1

[20] = compound: CS(=O)(=O)N1CCN(Cc2cc3nc(-c4cccc5[nH]ncc45)nc(N4CCOCC4)c3s2)CC1 [pictilisib]
Outline: as §1

Measured: log2 fold change

NEBL isoform 2 (UniProt O76041)
inactive: [1] 0.027 | [2] 0.09 | [3] 0.006 | [4] -0.004 | [5] -0.005 | [6] -0.049 | [7] -0.045 | [8] -0.039 | [9] -0.046 | [10] 0.007 | [11] -0.006 | [12] -0.026 | [13] 0.011 | [14] 0.021 | [15] 0 | [16] 0.039 | [17] 0.009 | [18] 0.068 | [19] -0.039 | [20] 0.002

NADK (UniProt O95544)
inactive: [1] 0.012 | [2] 0.04 | [3] -0.013 | [4] 0 | [5] -0.06 | [6] -0.021 | [7] 0.012 | [8] -0.024 | [9] -0.014 | [10] 0.041 | [11] -0.002 | [12] -0.016 | [13] -0.009 | [14] 0.017 | [15] -0.093 | [16] 0.002 | [17] -0.014 | [18] 0.058 | [19] 0 | [20] 0.013

NAA50 (UniProt Q9GZZ1)
inactive: [1] -0.007 | [2] -0.026 | [3] -0.105 | [4] 0.024 | [5] -0.019 | [6] -0.054 | [7] 0.015 | [8] -0.006 | [9] -0.012 | [10] -0.022 | [11] 0.146 | [12] -0.115 | [13] 0.049 | [14] 0.011 | [15] -0.005 | [16] -0.018 | [17] 0.006 | [18] 0.033 | [19] 0.009 | [20] -0.045

NAA10 (UniProt P41227)
inactive: [1] 0.041 | [2] 0.026 | [3] -0.068 | [4] 0.027 | [5] -0.006 | [6] -0.061 | [7] -0.043 | [8] 0.036 | [9] 0.004 | [10] -0.013 | [11] 0.013 | [12] -0.04 | [13] 0.007 | [14] -0.047 | [15] 0.023 | [16] -0.014 | [17] 0 | [18] 0.015 | [19] 0.012 | [20] -0.005

NDC1 (UniProt Q9BTX1)
inactive: [1] 0.015 | [2] 0.015 | [3] -0.049 | [4] 0.016 | [5] 0.023 | [6] -0.06 | [7] -0.072 | [8] 0 | [9] 0.005 | [10] -0.061 | [11] -0.066 | [12] -0.014 | [13] 0.005 | [14] -0.025 | [15] -0.035 | [16] 0 | [17] 0.017 | [18] 0.036 | [19] -0.012 | [20] 0.017

NCAPG2 isoform 2 (UniProt Q86XI2)
inactive: [1] -0.215 | [2] -0.152 | [3] 0.03 | [4] 0.004 | [5] 0.176 | [6] 0.267 | [7] 0.194 | [8] -0.012 | [9] 0.229 | [10] -0.221 | [11] -0.099 | [12] 0.152 | [13] -0.062 | [14] 0.058 | [15] -0.012 | [16] 0.177 | [17] -0.15 | [18] -0.069 | [19] -0.029 | [20] -0.037

NCLN (UniProt Q969V3)
inactive: [1] -0.038 | [2] -0.015 | [3] -0.01 | [4] 0.041 | [5] -0.001 | [6] 0.05 | [7] 0.043 | [8] 0.015 | [9] 0.038 | [10] 0.003 | [11] -0.069 | [12] -0.027 | [13] 0.006 | [14] -0.001 | [15] -0.05 | [16] -0.047 | [17] 0.006 | [18] -0.009 | [19] 0.006 | [20] -0.047

NDUFAF4 (UniProt Q9P032)
inactive: [1] -0.016 | [2] 0 | [3] -0.047 | [4] -0.019 | [5] -0.01 | [6] -0.025 | [7] -0.015 | [8] -0.026 | [9] 0.003 | [10] 0.014 | [11] -0.021 | [12] -0.137 | [13] 0.018 | [14] -0.082 | [15] -0.037 | [16] -0.058 | [17] -0.025 | [18] 0.026 | [19] -0.015 | [20] 0.059

NCR3LG1 (UniProt Q68D85)
inactive: [1] -0.048 | [2] -0.042 | [3] 0.05 | [4] 0.111 | [5] -0.007 | [6] -0.132 | [7] 0.154 | [8] -0.043 | [9] 0.11 | [10] -0.013 | [11] 0.035 | [12] 0.087 | [13] -0.026 | [14] 0.055 | [15] -0.067 | [16] 0.087 | [17] -0.05 | [18] 0.041 | [19] 0.05 | [20] 0.122

NAPA (UniProt P54920)
inactive: [1] 0.029 | [2] -0.04 | [3] -0.067 | [4] 0.003 | [5] 0.027 | [6] -0.063 | [7] -0.068 | [8] -0.032 | [9] 0.028 | [10] -0.008 | [11] -0.01 | [12] -0.048 | [13] 0.02 | [14] -0.043 | [15] 0.043 | [16] -0.007 | [17] -0.012 | [18] -0.013 | [19] 0.003 | [20] 0.009

NDUFA11 (UniProt Q86Y39)
inactive: [1] 0.07 | [2] 0.073 | [3] -0.026 | [4] -0.079 | [5] 0.02 | [6] -0.068 | [7] -0.098 | [8] -0.018 | [9] 0 | [10] -0.006 | [11] -0.115 | [12] 0.034 | [13] -0.025 | [14] -0.054 | [15] -0.071 | [16] -0.059 | [17] 0.023 | [18] -0.013 | [19] -0.012 | [20] -0.039

NCOR2 (UniProt C9J0Q5)
inactive: [1] 0.06 | [2] 0.078 | [3] -0.239 | [4] -0.038 | [5] -0.03 | [6] -0.106 | [7] 0.216 | [8] -0.052 | [9] 0.044 | [10] 0.043 | [11] -0.059 | [12] 0.04 | [13] -0.044 | [14] -0.032 | [15] -0.047 | [16] 0.031 | [17] 0.021 | [18] 0.153 | [19] 0.01 | [20] 0.047

NDUFS3 (UniProt O75489)
inactive: [1] 0.078 | [2] 0.011 | [3] -0.032 | [4] -0.053 | [5] -0.026 | [6] -0.094 | [7] -0.043 | [8] -0.002 | [9] 0.017 | [10] -0.008 | [11] 0.006 | [12] -0.078 | [13] 0.003 | [14] -0.064 | [15] -0.093 | [16] -0.033 | [17] -0.026 | [18] 0.027 | [19] 0.021 | [20] 0.003

NARF (UniProt Q9UHQ1)
inactive: [1] 0.05 | [2] 0 | [3] -0.006 | [4] -0.016 | [5] 0.024 | [6] -0.056 | [7] -0.036 | [8] -0.031 | [9] 0.093 | [10] 0.021 | [11] -0.114 | [12] 0.088 | [13] 0.029 | [14] 0.003 | [15] 0.03 | [16] 0.024 | [17] -0.026 | [18] -0.011 | [19] -0.03 | [20] -0.03

NDUFAF5 (UniProt Q5TEU4)
inactive: [1] 0.029 | [2] -0.012 | [3] -0.077 | [4] -0.053 | [5] -0.001 | [6] -0.013 | [7] -0.04 | [8] -0.046 | [9] 0.077 | [10] -0.016 | [11] 0.021 | [12] -0.094 | [13] 0.007 | [14] -0.021 | [15] 0.053 | [16] 0.01 | [17] 0 | [18] -0.117 | [19] 0.017 | [20] -0.016

NAGK isoform 2 (UniProt Q9UJ70)
inactive: [1] 0.037 | [2] 0.012 | [3] 0.009 | [4] 0.013 | [5] -0.027 | [6] -0.042 | [7] -0.003 | [8] -0.012 | [9] -0.043 | [10] 0.022 | [11] 0 | [12] -0.046 | [13] -0.04 | [14] -0.014 | [15] 0.003 | [16] 0.038 | [17] 0.014 | [18] 0.056 | [19] 0.007 | [20] 0.062
